Results deposited as PubChem BioAssay AID1224828 (NIAID, 2016)
The whole screen tested about 17,000 reagents; this is a part drawn at random. In the full data, 762 (4.5%) got an active call. 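Active calls include both raised and lowered p65 entry, mostly lowered; wells with fewer than 50 cells lack a z-score.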 Raw values are not corrected between plates. Entries without a mark were called inactive. The numbers tell different reagents against one gene apart.

- Aim: 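Knock-downs that increase or decrease LPS-induced p65 nuclear translocation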 (primary screen)
- Cell system: mouse RAW264.7 G9 macrophage reporter cells (GFP-p65, Tnf promoter-mCherry)
- Knock-down reagent: siRNA pool against mouse genes, 100 nM
- Timing: 2 days siRNA transfection, then 40 min LPS before fixation
- Conditions: LPS (Salmonella minnesota R595) at 10 ng/ml
- Detection: 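Microscopy ratio of nuclear to perinuclear-ring GFP-p65 signal, scaled to the plate median; gene score is the average of two replicate robust z-scores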
- Reading the numbers: p65 translocation robust z-score: higher = more nuclear NF-kappaB p65 after LPS than the plate median; nuclear/cytoplasmic p65 ratio: higher = more nuclear NF-kappaB p65
- Hit rule: 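Active if robust z is above 3.3 (negative regulators) or below -1.56, the Tlr4 control median (positive regulators); activity score 50 or more; control wells not called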
- Meaning of the calls: active = hit (p65 shift raised or lowered); inactive = no clear change

gene,reagent,p65 translocation robust z-score,"nuclear/cytoplasmic p65 ratio, rep 1","nuclear/cytoplasmic p65 ratio, rep 2",low cell count flag
Cldn12,1,0.23,1.38,1.41,enough cells to score
Lactb2,1,1.42,1.72,1.65,enough cells to score
Col17a1,1,-0.14,1.33,1.36,enough cells to score
Romo1,1,,1.81,0,fewer than 50 cells per well; well left out of scoring
Btaf1,1,-0.21,1.48,1.3,enough cells to score
Acbd4,1,1.48,1.8,1.95,enough cells to score
Taf1,1,-0.91,1.59,1.23,enough cells to score
Dnase1l2,1,,1.08,1.25,fewer than 50 cells per well; well left out of scoring
Clec4n,1,-0.66,1.49,1.68,enough cells to score
Mdn1,1,0.91,1.47,1.68,enough cells to score
Slc12a4,1,-0.08,1.38,1.26,enough cells to score
Asb17,1,0.15,1.65,1.5,enough cells to score
Arhgap31,1,1.08,1.72,2,enough cells to score
Tcl1b2,1,,1.24,0,fewer than 50 cells per well; well left out of scoring
Klk1b4,1,-1.11,1.49,1.53,enough cells to score
Or6c69c,1,,1.64,1.45,fewer than 50 cells per well; well left out of scoring
Mtrex,1,,1.33,1.45,fewer than 50 cells per well; well left out of scoring
P2rx1,1,-0.9,1.28,1.34,enough cells to score
Btf3,1,-0.98,1.43,1.51,enough cells to score
Wrn,1,-0.44,1.56,1.34,enough cells to score
Or8k36,1,-0.36,1.59,1.53,enough cells to score

6 entries from above, sorted by “nuclear/cytoplasmic p65 ratio, rep 1”, ascending.
gene,reagent,p65 translocation robust z-score,"nuclear/cytoplasmic p65 ratio, rep 1","nuclear/cytoplasmic p65 ratio, rep 2",low cell count flag
Dnase1l2,1,,1.08,1.25,fewer than 50 cells per well; well left out of scoring
Slc12a4,1,-0.08,1.38,1.26,enough cells to score
Mdn1,1,0.91,1.47,1.68,enough cells to score
Clec4n,1,-0.66,1.49,1.68,enough cells to score
Taf1,1,-0.91,1.59,1.23,enough cells to score
Acbd4,1,1.48,1.8,1.95,enough cells to score

Additional entries follow.
gene,reagent,p65 translocation robust z-score,"nuclear/cytoplasmic p65 ratio, rep 1","nuclear/cytoplasmic p65 ratio, rep 2",low cell count flag
E2f3,1,2.24,1.94,1.53,enough cells to score
Zfp281,1,-0.36,1.52,1.4,enough cells to score
Sprr2b,1,-1.09,1.26,1.12,enough cells to score
Or4c35,1,2.2,1.91,1.74,enough cells to score
Cox5b,1,0.61,1.71,1.84,enough cells to score
Cstl1,1,-0.21,1.56,1.74,enough cells to score
BC051665,1,-0.1,1.62,1.58,enough cells to score
Pibf1,1,-0.98,1.49,1.56,enough cells to score
Fam193b,1,-0.16,1.42,1.97,enough cells to score
Amph,1,0.19,1.63,1.72,enough cells to score
Adam12,1,-0.05,1.63,1.6,enough cells to score
Atg4d,1,1.11,1.7,1.74,enough cells to score
Pip5k1c,1,1.52,1.56,1.74,enough cells to score
Prg3,1,-0.65,1.4,1.33,enough cells to score
Cutc,1,-0.49,1.46,1.75,enough cells to score
Tbx21,1,-1.46,1.29,1.34,enough cells to score
Cgas,1,0.02,1.45,1.39,enough cells to score
Gp5,1,-0.63,1.31,1.33,enough cells to score
9530080O11Rik,1,,1.23,1.51,fewer than 50 cells per well; well left out of scoring
Zfp868,1,0.9,1.71,1.85,enough cells to score
Ptger4,1,-0.52,1.4,1.54,enough cells to score
Hacd1,1,-0.19,1.52,1.34,enough cells to score
Gabra4,1,0.58,1.52,1.44,enough cells to score
Tyw3,1,1.21,1.52,1.37,enough cells to score
Mrpl34,1,-1.68 (active),1.53,1.32,enough cells to score
Skp2,1,-1.68 (active),1.35,1.33,enough cells to score
Stmn4,1,-0.97,1.28,1.13,enough cells to score
Tmem42,1,,1.2,1.27,fewer than 50 cells per well; well left out of scoring
Map1lc3a,1,,1.2,1.03,fewer than 50 cells per well; well left out of scoring
Emc6,1,-0.94,1.32,1.4,enough cells to score
Bicc1,1,-0.03,1.43,1.52,enough cells to score
Atp2b3,1,,1.4,1.47,fewer than 50 cells per well; well left out of scoring
Gpx7,1,-0.37,1.68,1.4,enough cells to score
Rassf3,1,-0.09,1.3,1.27,enough cells to score
Opn4,1,-1.96 (active),1.19,1.35,enough cells to score
Ikzf4,1,-0.15,1.46,1.17,enough cells to score
Ikzf4,2,-0.22,1.41,1.44,enough cells to score
Dpep3,1,-1.55,1.28,1.17,enough cells to score
